# PubChem BioAssay AID540276 (National Center for Advancing Translational Sciences (NCATS), 2011)
# “And” between values parts separate entries of the source, which are not always exact repeats. Identical values can stand only once. Out of some 300,000 compounds screened, about 5,400 (1.8%) were called active. The shares of active, inactive and inconclusive entries below differ from those in the screen. Calls come from the whole dose curve; tested in HEK293 cells. A potency beside an inconclusive call is a rough fit, not a confirmed value.
# Assay: qHTS for inhibitors of binding or entry into cells for Marburg Virus
# Conditions: Marburg virus pseudotyped entry inhibition, cell reporter; series mostly up to 37.8 µM
# Potency is the fitted concentration of half-maximal effect.
row,Compound,Potency
1,CCC(=O)N=c1sc2cc([N+](=O)[O-])ccc2n1CCOC,inactive
2,CC(C)(C)n1nc(-c2ccc(F)cc2)c2c(N)ncnc21,inactive
3,COc1ccccc1N1CCN(C(=O)c2oc3cc(C)cc(C)c3c2C)CC1,"inconclusive: 11.6 µM [inhibitor, partial curve, poor fit]"
4,Cc1cc(/C=N/Nc2ccc([N+](=O)[O-])cn2)c(C)n1-c1ccccc1,inactive
5,O=P(Oc1ccccc1)(Oc1ccccc1)N1CCN(c2ccc(F)cc2)CC1,active: 10 µM
6,O=C(NCCNS(=O)(=O)c1ccccc1)N1CCOCC1,inactive
7,CCOC(=O)N1CCc2c(sc(NC(=O)C3=COCCO3)c2C(N)=O)C1,inactive
8,COc1ccccc1N1CCN(C(=S)Nc2ccc3nc(N4CCOCC4)cc(C)c3c2)CC1,"inconclusive: 22.4 µM [inhibitor, single point]"
9,COc1cc(CNCCO)cc(Br)c1OCc1ccccc1Cl,"inconclusive: 35.5 µM [inhibitor, single point]"
10,CCOC(=O)C1CN(S(=O)(=O)c2ccccc2)c2cc(S(=O)(=O)CC)ccc2O1 (stereo unspecified),"inconclusive: 0.116 µM [inhibitor, partial curve, poor fit]"
11,Nc1c(C(=O)c2ccc(Br)cc2)oc2ccccc12,inactive
12,CCCN(CCC)CCNC(=O)c1cc2c(-c3ccccc3F)nn(C)c2s1,"inconclusive: 4.47 µM [inhibitor, full curve] and inconclusive: 7.08 µM [inhibitor, partial curve, poor fit]"
13,O=c1c2[nH]c3cccc(Cl)c3c2ncn1CC1CCCO1 (stereo unspecified),"inconclusive: 15.8 µM [activator, single point]"
14,Cc1oc(-c2cccc(F)c2)nc1CN(Cc1ccccc1)C[C@@H]1CCC(=O)N1,"inconclusive: 7.94 µM [inhibitor, partial curve, poor fit]"
15,NC(N)=N/N=C/c1ccc(Cl)c(Cl)c1,"inconclusive: 7.94 µM [inhibitor, partial curve]"
16,Nc1nc(SCc2ccc(Cl)cc2Cl)nc2nc3c(cc12)CCCC3,"inconclusive: 20 µM [inhibitor, single point]"
17,Cc1cc(C(=O)N/N=C2/CC(C)CC(C)(C)C2)c(C)o1 (stereo unspecified),"inconclusive: 35.5 µM [inhibitor, single point]"
18,Cc1cc(OCC(=O)N(Cc2ccco2)C2CCS(=O)(=O)C2)ccc1Cl (stereo unspecified),inactive
19,CCOC(=O)c1c(C)[nH]c(C(=O)COC(=O)CNC(=O)c2ccc(Cl)cc2Cl)c1C,"inconclusive: 17.8 µM [activator, single point]"
20,O=C(Nc1cc(C(F)(F)F)ccc1N1CCOCC1)c1ccc2ccccc2n1,inactive
21,COc1cc(CN(C(=O)COc2ccc(C)c(C)c2)c2ccccn2)cc(OC)c1OC,inactive
22,Cc1ccc(C)c(NC(=O)CCCn2nc(C)c3sc4ccccc4c3c2=O)c1,"inconclusive: 31.6 µM [activator, single point]"
23,COc1cc2c(cc1NC(=O)COC(=O)CNC(=O)c1ccccc1)oc1ccccc12,inactive
24,Cc1cccc(NC(=O)C2C(c3ccccc3)C2(Cl)Cl)c1C (stereo unspecified),"inconclusive: 3.16 µM [activator, single point]"

row,Compound,Potency
1,COc1cnc(-c2ccccn2)nc1Sc1ccc(C)cc1,active: 6.31 µM
2,Brc1ccc2c(c1)c1cc(Br)ccc1n2CC1CO1 (stereo unspecified),"inconclusive: 3.35 µM [inhibitor, single point]"
3,O=C(CN(C1CCCCC1)S(=O)(=O)c1ccccc1)NCc1ccco1,inactive
4,CCCN1Cc2cccc(C(=O)N3CCN(c4ccccc4)CC3)c2C1=O,"inconclusive: 35.5 µM [activator, single point]"
5,CCOc1ccc(C=NNc2ccc(S(=O)(=O)Nc3ccccc3C(=O)O)cc2[N+](=O)[O-])cc1,"inconclusive: 14.1 µM [inhibitor, single point]"
6,CCC1OC23CCCCC2C(C#N)(C(=N)O3)C1(C#N)C#N (stereo unspecified),inactive
7,COc1ccccc1NC(=O)c1sc2ncn(Cc3ccccc3C)c(=O)c2c1C,"inconclusive: 29.1 µM [inhibitor, single point]"
8,Cc1nc2ccc(NC(=O)COc3ccccc3)cc2s1,"inconclusive: 1 µM [activator, partial curve, poor fit]"
9,COC(=O)c1cn(NC(=O)c2ccc(OC)c(OC)c2)c(=O)c2ccccc12,"inconclusive: 3.98 µM [inhibitor, partial curve, poor fit]"
10,CCCN(CCc1ccccc1)C1CCc2c(O)cccc2C1 (stereo unspecified),active: 15.8 µM
11,O=C1/C(=C/c2ccc(O)c(O)c2)SC(=S)N1Nc1ccccc1,"inconclusive: 3.16 µM [activator, partial curve, poor fit]"
12,CCc1ccc(C(=O)NNC(=O)CCN2CCN(Cc3ccccc3)CC2)cc1,"inconclusive: 11.2 µM [inhibitor, partial curve, poor fit]"
13,CC1(NC(=O)COc2ccccc2-c2ccccc2)CCS(=O)(=O)C1 (stereo unspecified),inactive
14,CCOC(=O)CN1C(=O)S/C(=C/C=C/c2ccc(N(C)C)cc2)C1=O,"inconclusive: 1.16 µM [activator, single point]"
15,COc1ccc(OC)c(S(=O)(=O)N2CCN(CC(O)COc3ccccc3)CC2)c1 (stereo unspecified),"inconclusive: 11.2 µM [inhibitor, partial curve, poor fit]"
16,c1ccc(CSCc2cn3ccccc3n2)cc1,"inconclusive: 3.55 µM [inhibitor, single point]"
17,Cc1ccc(S(=O)(=O)CCSc2nc(C)cc(C)c2C#N)cc1,"inconclusive: 13 µM [inhibitor, partial curve, poor fit]"
19,COc1cc(NC(=O)c2ccc3c(c2)OCCO3)ccc1NC(=O)c1cccs1,inactive
20,CCNc1nc(NCC)nc(N/N=C/c2ccc(N(C)C)cc2)n1,"inconclusive: 17.8 µM [inhibitor, partial curve, poor fit]"
21,Cc1ccc(NC(=O)C2CCN(C(=O)NC3CCCCC3)CC2)cc1Cl,inactive
22,COCCNC(=S)N(Cc1cccnc1)Cc1ccc(OC)c(OC)c1,"inconclusive: 35.5 µM [inhibitor, single point]"
23,Cn1cnnc1SCc1ccc(C#N)cc1Cl,"inconclusive: 0.164 µM [activator, single point]"
24,CCOC(=O)c1c(NC(=O)Cc2cccs2)sc(C)c1C,inactive

row,Compound,Potency
1,Cc1ccc(Nc2nc(C(=O)NCc3ccco3)cs2)cc1,"inconclusive: 32.6 µM [inhibitor, single point]"
2,Cc1ccc(S(=O)(=O)Nc2cc3c(cc2N2CCOCC2)n(C)c(=O)n3C)c(C)c1,inactive
3,Cc1[nH]c2ccccc2c1C(=O)COC(=O)C1CC(=O)N(Cc2ccco2)C1 (stereo unspecified),inactive
4,CCNC(=O)CP(=O)(c1ccccc1)c1ccccc1,inactive
5,COc1ccc(N2CC(C(=O)OCC(=O)Nc3cccc(C)c3)CC2=O)cc1 (stereo unspecified),"inconclusive: 35.5 µM [inhibitor, single point]"
6,CSc1nnc(C(C)(C)C)c(=O)n1/N=C/c1ccccc1,inactive
7,CCN(CC)CCNC(=O)c1ccc(NC(=O)c2cccc(S(=O)(=O)N3CCc4ccccc43)c2)cc1,active: 8.91 µM
8,CCC(C(=O)Nc1cccc(C#N)c1)n1c(=O)c(-c2ccccc2NC(C)=O)nc2ccccc21 (stereo unspecified),inactive
9,CCOC(=O)/C(=C\c1c[nH]c2ccccc12)NC(C)=O,"inconclusive: 1.26 µM [inhibitor, partial curve, poor fit]"
10,Nc1nc(SCc2ccccc2)c2ncn(C3CCCO3)c2n1 (stereo unspecified),"inconclusive: 15.8 µM [inhibitor, single point]"
11,COc1ccc(-c2c3c(=O)n(C)c(=O)n(C)c3c3c(-c4ccc(C)cc4)nc4ccccc4n23)cc1,inactive
12,O=C(NCc1ccccc1Cl)c1cccc(C(F)(F)F)c1,"inconclusive: 3.98 µM [inhibitor, single point]"
13,CC(=O)OC[C@H]1O[C@H](CC=NOC[C@@H](O)[C@H]2O[C@@H]3OC(C)(C)O[C@H]3[C@@H]2O)C=C[C@H]1OC(C)=O,"inconclusive: 0.0084 µM [inhibitor, full curve, poor fit]"
14,Cc1ccc(NC(=O)Cn2c(-c3ccc4c(c3)OCO4)cn(-c3ccccc3)c2=O)cc1,"inconclusive: 6.31 µM [activator, single point]"
15,CCOC(=O)C1=C(C)NC(=S)NC1c1ccc(-c2ccc(Cl)cc2)o1 (stereo unspecified),active: 12.6 µM
16,CC1=NN(c2cccc(C(=O)O)c2)C(=O)/C1=C\C=C\c1ccco1,"inconclusive: 10 µM [inhibitor, partial curve, poor fit]"
17,COc1ccc(/C=C2\SC(=S)N(CCCC(=O)N3CCN(C)CC3)C2=O)cc1,"inconclusive: 35.5 µM [inhibitor, partial curve, poor fit]"
18,COC(=O)c1cn(-c2ccccc2)nc1-c1ccccc1,inactive
19,COc1ccc(S(=O)(=O)N2CCC(C(=O)Nc3ccccc3N3CCCCC3)CC2)cc1OC,"inconclusive: 20 µM [inhibitor, partial curve, poor fit]"
20,N/C(=N\OC(=O)CCC1CCCC1)c1ccccn1,"inconclusive: 1.12 µM [activator, partial curve, poor fit]"
21,Cc1ccc2oc(=O)c3cc(C(=O)N(Cc4ccccc4)C(C)C)sc3c2c1,inactive
22,O=c1[nH]c(Nc2ccccc2)cc2ccccc12,inactive
23,Cc1cc(C)n(/N=C/c2c[nH]c3ccccc23)c(=O)c1,"inconclusive: 3.16 µM [activator, partial curve, poor fit]"
